# From article PMC7426016
# Sequences of proteins named here, by UniProt entry; tags and fusion partners are left off.
# UniProt Q61056: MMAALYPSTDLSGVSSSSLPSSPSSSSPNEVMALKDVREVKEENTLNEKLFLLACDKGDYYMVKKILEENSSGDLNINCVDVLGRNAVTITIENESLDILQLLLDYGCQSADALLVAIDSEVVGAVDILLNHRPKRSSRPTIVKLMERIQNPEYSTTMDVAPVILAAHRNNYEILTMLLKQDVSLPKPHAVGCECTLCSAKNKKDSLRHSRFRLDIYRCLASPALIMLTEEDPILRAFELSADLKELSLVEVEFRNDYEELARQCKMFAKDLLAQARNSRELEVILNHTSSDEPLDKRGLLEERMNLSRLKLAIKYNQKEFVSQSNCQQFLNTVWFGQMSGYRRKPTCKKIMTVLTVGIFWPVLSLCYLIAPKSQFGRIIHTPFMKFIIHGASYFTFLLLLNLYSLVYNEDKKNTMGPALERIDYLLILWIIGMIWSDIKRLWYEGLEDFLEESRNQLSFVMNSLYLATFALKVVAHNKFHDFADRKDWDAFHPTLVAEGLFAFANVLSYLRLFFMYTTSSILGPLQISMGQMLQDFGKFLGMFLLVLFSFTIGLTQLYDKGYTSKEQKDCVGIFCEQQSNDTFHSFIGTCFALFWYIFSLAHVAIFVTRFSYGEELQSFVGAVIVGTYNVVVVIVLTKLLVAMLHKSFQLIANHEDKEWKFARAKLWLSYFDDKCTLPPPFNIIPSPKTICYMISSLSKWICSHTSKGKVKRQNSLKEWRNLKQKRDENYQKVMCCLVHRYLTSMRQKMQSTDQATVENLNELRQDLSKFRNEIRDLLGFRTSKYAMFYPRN
# UniProt Q9EPK8: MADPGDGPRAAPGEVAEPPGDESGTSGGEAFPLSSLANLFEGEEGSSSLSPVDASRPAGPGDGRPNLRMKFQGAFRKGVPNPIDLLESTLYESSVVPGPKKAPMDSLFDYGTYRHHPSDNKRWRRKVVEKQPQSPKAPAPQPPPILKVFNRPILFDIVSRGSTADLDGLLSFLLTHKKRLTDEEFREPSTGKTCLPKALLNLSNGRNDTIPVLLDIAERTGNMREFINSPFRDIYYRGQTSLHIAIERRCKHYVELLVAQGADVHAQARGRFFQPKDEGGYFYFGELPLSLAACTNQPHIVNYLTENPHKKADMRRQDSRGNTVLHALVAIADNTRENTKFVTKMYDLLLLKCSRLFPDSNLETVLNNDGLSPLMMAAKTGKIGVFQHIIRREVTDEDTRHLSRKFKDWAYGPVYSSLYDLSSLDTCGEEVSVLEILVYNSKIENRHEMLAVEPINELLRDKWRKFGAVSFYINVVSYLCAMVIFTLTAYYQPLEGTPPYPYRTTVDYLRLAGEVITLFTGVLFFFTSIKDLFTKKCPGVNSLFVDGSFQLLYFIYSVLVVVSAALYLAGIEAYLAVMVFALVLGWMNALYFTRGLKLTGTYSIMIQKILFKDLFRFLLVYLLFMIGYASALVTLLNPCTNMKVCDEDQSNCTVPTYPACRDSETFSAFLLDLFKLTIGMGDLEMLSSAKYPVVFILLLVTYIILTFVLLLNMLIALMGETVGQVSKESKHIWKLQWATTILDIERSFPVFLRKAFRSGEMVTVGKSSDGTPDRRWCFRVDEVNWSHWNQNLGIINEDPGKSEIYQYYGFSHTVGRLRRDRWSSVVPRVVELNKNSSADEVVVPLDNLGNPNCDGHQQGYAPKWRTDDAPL
# Results are given in words; binding and its absence hold for the method and conditions named. In cells and extracts the contact can be indirect. Some results given as binding are weak or reduced against the parent protein; the word gives no strength.
# Biological target: TRPC1 (mouse (endogenous in mesenteric artery endothelial cells)) (UniProt Q61056)
# Assay: proximity ligation; Duolink in situ PLA on freshly isolated mouse mesenteric artery ECs, fixed with 4% paraformaldehyde and permeabilised with 0.1% Triton X-100; goat anti-TRPV4 antibody and rabbit T1E3 (both 1:200) overnight at 4°C; signal when in close proximity (<40 nm); TRPC1-/- ECs and omission of primary antibodies as controls
substance,measurement,value
TRPV4 (from UniProt Q9EPK8 1-871),binding,binds
